Isolated yield, crude mass and isolated mass data for 53 substances are collected here from patent publication US7045591B2 (Hoffmann-La Roche Inc., priority 2000, dated 2006).

A short description of the first data set: general procedure: Fmoc solid-phase peptide synthesis; Fmoc-Linker-BHA resin (Rink linker on benzhydrylamine resin) or Wang resin; HBTU and DIC preferred, with HOBT. As to conditions: whole synthesis.
“Penta-cyclo(Asp-Dbr)-Asp-Apc-(D)Phe-Arg-Trp-Dbr-NH2” showed an isolated yield of 9%/o. The substance “Penta-cyclo(Asp-Lys)-Asp-3-MeAppc-(D)Phe-Arg-Trp-Lys-NH2” came in with an isolated yield of 14%. Substance “Penta-cyclo(Asp-Lys)-Asp-4-ClAppc-(D)Phe-Arg-Trp-Lys-NH2” registered an isolated yield of 14%.

Consider “Penta-cyclo(Asp-Lys)-Asp-2-MeAppc-(D)Phe-Arg-Trp-Lys-NH2”, for which the isolated yield amounted to 15%. In the case of “Penta-cyclo(Asp-Dpr)-Asp-Apc-(D)Phe-Arg-Trp-Dpr-NH2”, the isolated yield came to 8%. For “Penta-cyclo(Asp-Lys)-Asp-Apc-(D)Phe-Arg-(2S,3S) beta methyl-Trp-Lys-NH2”, the isolated yield is 10%. As for “Penta-cyclo(Asp-Lys)-Asp-2-iPrAppc-(D)Phe-Arg-Trp-Lys-NH2”, the isolated yield is reported as 14%.

With “Penta-cyclo(Asp-Lys)-Asp-4-ClApc-(D)Phe-Arg-Trp-Lys-NH2”, the isolated yield is recorded as 12%. Consider “Penta-cyclo(Asp-Lys)-Asp-4-MeApc-(D)Phe-Arg-Trp-Lys-NH2”, for which the isolated yield was 14%. On the same count and under the same terms, then “Ac-Nle-cyclo(Cys-Cys)-Cys-Apc-(D)Phe-Arg-Trp-Cys-NH2”, with 4.7%. In the case of “Cyclo(phthalic acid-Dpr)-phthalic acid-Apc-(D)Phe-Arg-Trp-Dpr-NH2”, the isolated yield turned out to be 8%. On to “Ac-Nle-cyclo(Cys-Cys)-Cys-(D,L)Atc-(D)Phe-Arg-Trp-Cys-NH2”, for which the isolated yield amounted to 5.0%. Consider “Penta-cyclo(Asp-Lys)-Asp-4-PhOAppc-(D)Phe-Arg-Trp-Lys-NH2”, for which the isolated yield is 13%. On to “Penta-cyclo(Asp-Lys)-Asp-Apc-(D)Phe-Cit-Trp-Lys-NH2”, for which the isolated yield is recorded as 20%. Same read-out and setting: the same measure for “Cyclo(maleic acid-Dpr)-maleic acid-Apc-(D)Phe-Arg-Trp-Dpr-NH2”: 8%; for “Penta-cyclo(Asp-Lys)-Asp-Achc-(D)Phe-Arg-Trp-Lys-NH2”: 13%. In turn, “Penta-cyclo(Glu-Lys)-Glu-Apc-(D)Phe-Arg-Trp-Lys-NH2” registered an isolated yield of 15%.

“Penta-cyclo(Asp-Lys)-Asp-4-Adpc-(D)Phe-Arg-Trp-Lys-NH2” came in with an isolated yield of 11%. In the case of “Ac-cyclo(Asp-Dpr)-Asp-Apc-(D)Phe-Arg-Trp-Dpr-NH2”, the isolated yield is 8%. The same measure, in the same setting: the same measure for “Penta-cyclo(Asp-Lys)-Asp-3-MeOApc-(D)Phe-Arg-Trp-Lys-NH2”: 12%; for “Penta-cyclo(Asp-Orn)-Asp-Apc-(D)Phe-Arg-Trp-Orn-NH2”: 13%; for “Penta-cyclo(Asp-Lys)-Asp-Abc-(D) Phe-Arg-Trp-Lys-NH2”: 14%. As for “Cyclo(succinic acid-Dpr)-succinic acid-Apc-(D)Phe-Arg-Trp-Dpr-NH2”, the isolated yield is 8%. “Penta-cyclo(Asp-Lys)-Asp-Apc-(D)Phe-Ala-Trp-Lys-NH2”: the isolated yield stood at 20%. For “Penta-cyclo(Cys-Cys)-Cys-5-Br(D,L)Atc-(D)Phe-Arg-Trp-Cys-NH2”, the isolated yield came to 5.2%. “Penta-cyclo(Asp-Lys)-Asp-Appc-(D)Phe-Arg-Trp-Lys-NH2” gave an isolated yield of 14%. For “Penta-cyclo(Asp-Lys)-Asp-4-MeAppc-(D)Phe-Arg-Trp-Lys-NH2”, the isolated yield came out at 14%.

Staying with this data set, now noted: whole synthesis, scale 0.4 mmol.
In turn, “Cyclo(maleic acid-Lys)-maleic acid-Apc-(D)Phe-Arg-Trp-Lys-NH2” gave a crude mass of 230 mg, an isolated mass of 38 mg and an isolated yield of 11%.

“Penta-cyclo(Asp-Lys)-Asp-Apc-(D)Phe-Arg-Trp-Lys-NH2” returned an isolated mass of 53 mg and an isolated yield of 13%.

The substance “Ac-Nle-Cyclo(Asp-Lys)-Asp-His-(D)Phe-Arg-Trp-Lys-NH2” came in with an isolated mass of 60 mg and an isolated yield of 15%. For the substance “Penta-cyclo(Asp-Lys)-Asp-4-EtOApc-(D)Phe-Arg-Trp-Lys-NH2”, the isolated mass was determined as 60 mg and the isolated yield came to 14%. Taken in the same sequence, the figures for “Penta-cyclo(Asp-Lys)-Asp-Apc-(D)Phe-Arg-N-methyl(2)Nal-Lys-NH2” were 43 mg and 10%. “Penta-cyclo(Asp-Lys)-Asp-4-OHApc-(D)Phe-Arg-Trp-Lys-NH2”: the isolated mass is recorded as 55 mg and the isolated yield is on record as 13%. The corresponding values for “Penta-cyclo(Asp-Lys)-Asp-Apc-(D)Phe-Arg-(2)Nal-Lys-NH2” are 55 mg and 14%. In the case of “Penta-cyclo(Asp-Lys)-Asp-4-iPrOApc-(D)Phe-Arg-Trp-Lys-NH2”, the isolated mass was determined as 63 mg and the isolated yield turned out to be 15%. Consider “Cyclo(succinic acid-Lys)-succinic acid-Apc-(D)Phe-Arg-Trp-Lys-NH2”, for which the crude mass turned out to be 220 mg, the isolated mass was found to be 40 mg and the isolated yield is 11%. As for “Penta-cyclo(Asp-Lys)-Asp-4-MeOApc-(D)Phe-Arg-Trp-Lys-NH2”, the isolated mass came out at 49 mg and the isolated yield is given as 12%. “Cyclo(phthalic acid-Lys)-phthalic acid-Apc-(D)Phe-Arg-Tip-Lys-NH2” displayed a crude mass of 220 mg, an isolated mass of 35 mg and an isolated yield of 10%.

For “Penta-cyclo(Asp-Lys)-Asp-4-MeAppc-(D)Phe-Arg-Trp-Lys-NH2”, the crude mass amounted to 254 mg.

The same data set, now with this note: whole synthesis, side-chain lactam ring, sequence written open.
In turn, “Penta-(Asp-Lys)-Asp-5-EtO-(D,L)Atc-(D)Phe-Arg-Trp-Lys-NH2” yielded an isolated yield of 13%. The substance “Penta-(Asp-Lys)-Asp-3-MeO-Appc-(D)Phe-Arg-Trp-Lys-NH2” returned an isolated yield of 13%. “Penta-(Asp-Lys)-Asp-5-iPrO-(D,L)Atc-(D)Phe-Arg-Trp-Lys-NH2” came in with an isolated yield of 13%. Turning to “Penta-(Asp-Lys)-Asp-5-BrAtc-(D)Phe-Arg-Trp-Lys-NH2 (peak 2)”, the isolated yield was determined as 5%. In turn, “Penta-(Asp-Lys)-Asp-5-BrAtc-(D)Phe-Cit-Trp-Lys-NH2 (peak 2)” showed an isolated yield of 4.8%. In turn, “Penta-(Asp-Lys)-Asp-5-iPr-(D,L)Atc-(D)Phe-Arg-Trp-Lys-NH2” returned an isolated yield of 13%. The substance “Penta-(Asp-Lys)-Asp-5-Me-(D,L)Atc-(D)Phe-Arg-Trp-Lys-NH2” registered an isolated yield of 13%.

In turn, “Penta-(Asp-Lys)-Asp-5-MeO-(D,L)Atc-(D)Phe-Arg-Trp-Lys-NH2” had an isolated yield of 13%. Regarding “Penta-(Asp-Lys)-Asp-5-Et-(D,L)Atc-(D)Phe-Arg-Trp-Lys-NH2”, the isolated yield is given as 12%.

“Penta-(Asp-Lys)-Asp-5-ClAtc-(D)Phe-Arg-Trp-Lys-NH2 (peak 1)” gave an isolated yield of 6%.

For “Penta-(Asp-Lys)-Asp-5-ClAtc-(D)Phe-Cit-Trp-Lys-NH2 (peak 2)”, the isolated yield is recorded as 5.4%. As to “Penta-(Asp-Lys)-Asp-5-BrAtc-(D)Phe-Cit-Trp-Lys-NH2 (peak 1)”, the isolated yield is recorded as 5,6%.

For “Penta-(Asp-Lys)-Asp-5-BrAtc-(D)Phe-Arg-Trp-Lys-NH2”, the isolated yield is 6%. “Penta-(Asp-Lys)-Asp-5-ClAtc-(D)Phe-Arg-Trp-Lys-NH2 (peak 2)” came in with an isolated yield of 4%. Regarding “Penta-(Asp-Lys)-Asp-5-ClAtc-(D)Phe-Cit-Trp-Lys-NH2 (peak 1)”, the isolated yield worked out at 5.8%.
